By UniProt entry, the sequences of proteins in these tests, tags left out. Residues count along the entry.
UniProt P59665, 65-94: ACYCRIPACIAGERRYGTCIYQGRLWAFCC

In article PMC12523879:

Key:
[1] = target: T1, Peroxiredoxin-2 (Homo sapiens) (UniProt P32119); assay: pull-down with LC-MS/MS; conditions: CTC lysate, yeast RNA masking, 5' thiol C6 (5ThioMC6-D), Lysate in 0.1% DDM with masking yeast RNA, 30 min with aptamer-coated gold magnetic particles, five phosphate buffer washes, elution in 8 M urea, protein in an extract, label: immobilized on gold-coated magnetic particles, single-stranded DNA
T1 sequence (looked up, limits assumed): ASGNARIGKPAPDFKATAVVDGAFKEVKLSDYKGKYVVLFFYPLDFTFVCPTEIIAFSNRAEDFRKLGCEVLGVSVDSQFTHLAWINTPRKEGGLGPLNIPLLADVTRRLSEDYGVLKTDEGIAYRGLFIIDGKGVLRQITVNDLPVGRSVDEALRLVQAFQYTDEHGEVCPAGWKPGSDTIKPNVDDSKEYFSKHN

[2] = target: Neutrophil defensin 1 (Homo sapiens) (UniProt P59665); assay: pull-down with LC-MS/MS; conditions: yeast RNA masking, 5' thiol C6 (5ThioMC6-D), Lysate in 0.1% DDM with masking yeast RNA, 30 min with aptamer-coated gold magnetic particles, five phosphate buffer washes, elution in 8 M urea, protein in an extract, label: immobilized on gold-coated magnetic particles, single-stranded DNA

Sequence | binding result ([1]; protein predominant in LC-17 samples over controls) | binding result ([2]; CTC lysate, protein predominant in LC-17 samples over controls) | binding result [1] | binding result ([2]; CTC lysate) | binding result ([2]; lung cancer cell culture lysate)
CTCCTCTGACTGTAACCACGAGAGAGAGAGAGAGAGAGAGAGAGAGAGAGAGAGAGAGAG [AG-repeat control (thiolated primer + AG repeats)] | binds more weakly | binds more weakly |  |  | 
CTCCTCTGACTGTAACCACGCTTTTGTCTTTAGCCGAATTTTACTAAGCCGGGCTGATCAGCATAGGTAGTCCAGAAGCC [LC-17] |  |  | binds | binds | binds

Construct, isoform or probe ends are uncertain for at least one entry. At least one result comes from cells or an extract, where the contact may be indirect. The comparison behind a weaker result is the experiment's own reference, which may not be listed here. At least one verdict was read from the data and is not stated in words by the source. For some assays here: Protein sequences can lack the tags named with them.
